# Data from PubChem BioAssay AID1671190 (National Center for Advancing Translational Sciences (NCATS), 2021).
# Chains of the proteins cited; added tags and fusions are not shown. Lines headed by an entry give the natural chain unless they say otherwise; changes in a name come on top.
# UniProt P18054: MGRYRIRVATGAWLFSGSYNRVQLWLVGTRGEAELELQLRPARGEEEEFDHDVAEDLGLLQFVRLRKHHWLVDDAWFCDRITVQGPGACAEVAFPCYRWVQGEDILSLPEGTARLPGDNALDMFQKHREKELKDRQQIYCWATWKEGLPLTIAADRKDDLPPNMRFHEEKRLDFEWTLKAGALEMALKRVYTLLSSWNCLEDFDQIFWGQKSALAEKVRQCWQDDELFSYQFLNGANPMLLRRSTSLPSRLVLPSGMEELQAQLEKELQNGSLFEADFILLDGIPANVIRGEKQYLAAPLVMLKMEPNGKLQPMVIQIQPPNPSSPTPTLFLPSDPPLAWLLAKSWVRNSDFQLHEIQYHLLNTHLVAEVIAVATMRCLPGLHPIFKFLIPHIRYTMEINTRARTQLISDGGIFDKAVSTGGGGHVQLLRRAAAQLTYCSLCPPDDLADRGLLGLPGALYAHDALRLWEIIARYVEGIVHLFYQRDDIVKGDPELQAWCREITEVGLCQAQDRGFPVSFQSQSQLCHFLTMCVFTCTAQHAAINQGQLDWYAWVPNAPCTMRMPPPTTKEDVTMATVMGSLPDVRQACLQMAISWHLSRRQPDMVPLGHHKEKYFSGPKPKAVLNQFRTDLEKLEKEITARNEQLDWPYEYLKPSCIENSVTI
# Where “and” joins values, the source holds several entries; their conditions need not be identical. Identical values can stand only once. In all, about 580,000 compounds went through this assay and about 6,100 (1.1%) were called active. Inconclusive results, whose numbers are uncertain, are shown with a selection of clear calls. Calls follow the shape of the dose curve; as a rule, active = well fitted inhibition curve with a large enough effect; inconclusive = small, poorly fitted or top-dose-only effect, or another doubt; inactive = no such curve, though single readings can be large or run the other way. Potencies of inconclusive entries are doubtful fits and often do not repeat.
# Biological target: Polyunsaturated fatty acid lipoxygenase ALOX12 (Homo sapiens) (UniProt P18054)
# Test: Primary qHTS assay for inhibitors of human arachidonate 12S-lipoxygenase (ALOX12): Round 2
# Conditions: purified 12hLO, xylenol orange hydroperoxide absorbance; series mostly up to 108 µM
# Method in brief: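 Hydroperoxide product was detected by ferrous iron/xylenol orange as the 573 to 405 nm absorbance ratio. Arachidonic acid at 40 uM (final) was turned over for 30 min at room temperature by 150 nM human 12hLO, pH 7.0 Hepes buffer, after 15 min compound preincubation.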
# Potency is read from the fitted curve at half-maximal effect.
row,SMILES,Potency
1,Cc1ccc(C(=O)N2CCC(n3cc(-c4nc(C5CC5)no4)nn3)C2)s1 (stereo unspecified),inactive
2,CN1CC(=O)N(C2CCNC2)Cc2c(NCCc3cccc(F)c3)ncnc21 (stereo unspecified),"inconclusive: 3.16 µM [inhibitor, full curve]"
3,CCOC(=O)/C(C#N)=C/c1c(N2CCN(C)CC2)nc2ccccn2c1=O,inactive
4,Cc1cc(C(=O)NC(C)c2cccc(Cl)c2)c2cnn(C(C)C)c2n1 (stereo unspecified),"inconclusive: 141 µM [inhibitor, single point]"
5,Cc1ccc(S(=O)(=O)N2C[C@@H]3[C@H]4CC[C@H](C4)[C@@H]3[C@@H](C)[C@H]2c2ccn(Cc3ccccc3)c2)cc1,"inconclusive: 89.1 µM [inhibitor, single point]"
6,CC(C)(C)n1nnnc1C(C1CC1)N1CCN(C/C=C/c2ccccc2)CC1 (stereo unspecified),inactive
7,CC(=O)C(C(c1ccccc1)c1c[nH]c2ccccc12)[N+](=O)[O-] (stereo unspecified),"inconclusive: 50.1 µM [inhibitor, partial curve, poor fit]"
8,CC(C)Cc1nc(C#N)c(N2CCN(c3cccc(Cl)c3)CC2)o1,inactive
9,CC1CC(C)CN(C(C(=O)NC2CCCCC2)c2cc3ccccc3o2)C1 (stereo unspecified),"inconclusive: 56.2 µM [inhibitor, partial curve, poor fit]"
10,O=C(NCc1ccccc1C(F)(F)F)C12CN(Cc3ccccc3)CC1C(c1ccc([N+](=O)[O-])cc1)=NO2 (stereo unspecified),"inconclusive: 44.7 µM [inhibitor, partial curve, poor fit]"
11,Cc1nc(-c2ccc(C)c(N3CCN(C(=O)Nc4ccc(Br)cc4)CC3)c2)no1,inactive
12,Cc1c(Br)c([N+](=O)[O-])nn1CC(=O)Nc1sc2c(c1C(=O)OC(C)C)CCCC2,inactive
13,O=C(Nc1ccc(Cl)cn1)Nc1cccs1,"inconclusive: 70.8 µM [inhibitor, single point]"
14,NC(=O)c1ncn([C@@H]2O[C@H](CNCc3c(OCc4ccccc4F)ccc4ccccc34)[C@@H](O)[C@H]2O)n1,inactive
15,CCn1nnnc1SCC(=O)c1cccc(OC)c1,inactive
16,COc1c([N+](=O)[O-])c(=O)n(-c2ccccc2)c2ccccc12,"inconclusive: 56.2 µM [inhibitor, partial curve, poor fit]"
17,CCOc1ccc(CNC(=O)c2ccc3c(c2)nc2n3CCCC2)cc1,inactive
18,CCOc1ccc(CC(=O)N2CCC3(CC2)N=C(c2ccc(Cl)cc2)NO3)cc1,"inconclusive: 35.5 µM [inhibitor, partial curve, poor fit]"
19,COc1ccc2cc([C@H](C)C(=O)N(C)Cc3ccccc3N3CCCC3)ccc2c1,"inconclusive: 44.7 µM [inhibitor, partial curve, poor fit]"
20,CN(CC(=O)Nc1ccc(Cl)c(C(F)(F)F)c1)C(=O)CNC(=O)C1CCCCC1,"inconclusive: 31.6 µM [inhibitor, single point]"
21,N#Cc1cccnc1Sc1ccc(F)c(Cl)c1,"inconclusive: 100 µM [inhibitor, single point]"
22,CC(Nc1ccc(N2CCCC2=O)cc1)c1nc(C(C)(C)C)no1 (stereo unspecified),inactive

row,SMILES,Potency
1,CC1CN(C(=O)N2CCC(C(=O)NCCC3=CCCCC3)CC2)c2ccccc2O1 (stereo unspecified),"inconclusive: 126 µM [inhibitor, single point]"
2,CCCS(=O)(=O)NC(=O)C1(C)CCN(C(=O)c2snnc2C)C1 (stereo unspecified),"inconclusive: 50.1 µM [inhibitor, partial curve, poor fit]"
3,CC(C)C[C@H]1CN(CCCC[C@@H]2CNC(=O)C(=O)N2CCc2ccccc2)C(=O)C(=O)N1CCc1ccc(O)cc1,"inconclusive: 44.7 µM [inhibitor, partial curve, poor fit]"
4,COc1ccc(CN2CCN(Cc3c[nH]c4ccccc34)CC2CCO)c(F)c1 (stereo unspecified),"inconclusive: 50.1 µM [inhibitor, partial curve, poor fit]"
5,CC1(C(=O)NS(=O)(=O)C2CC2)CCN(C(=O)COc2ccc(Cl)cc2Cl)C1 (stereo unspecified),"inconclusive: 70.8 µM [inhibitor, partial curve, poor fit]"
6,CCCNC(=O)CN(C)C(=O)CCCc1c[nH]c2ccccc12,inactive
7,CN(Cc1ccccc1)C(=O)C1CCC(CNS(=O)(=O)c2cccc3cccnc23)CC1 (stereo unspecified),inactive
8,COc1cc(Nc2nc(SCC#N)nc3ccccc23)cc(OC)c1OC,inactive
9,CC(C)c1ccc(S(=O)(=O)Nc2ccc(O)c(Sc3nc4ccccc4s3)c2)cc1,"inconclusive: 44.7 µM [inhibitor, partial curve, poor fit]"
10,Fc1ccc(CNC(=S)N2CCc3ccccc32)cc1,inactive
11,CC(NC(=O)CCSc1nc(Cl)nc2nc[nH]c12)c1ccccc1 (stereo unspecified),"inconclusive: 50.1 µM [inhibitor, partial curve, poor fit]"
12,N#CC(=C(/N)Sc1ccccc1N)/C(C#N)=C(/N)Sc1ccccc1N,"inconclusive: 31.6 µM [inhibitor, partial curve, poor fit]"
13,O=C1C(Cl)=C(N2CCN(c3ccccc3[N+](=O)[O-])CC2)C(=O)c2ccccc21,inactive
14,CCCC(O)(c1ccc(OC)cc1)C(CN1CCOCC1)c1ccc(Cl)cc1 (stereo unspecified),"inconclusive: 89.1 µM [inhibitor, partial curve, poor fit]"
15,N=c1c(C(=O)NC2CCCC2)cc2c(=O)n3ccccc3nc2n1C1CCCC1,inactive
16,Cc1c(C#N)c(NC(=O)CSc2nnc(C)n2-c2ccccc2)n(Cc2ccccc2)c1C,"inconclusive: 1.12 µM [inhibitor, full curve, poor fit]"
17,O=C1/C(=C/c2cccnc2)Oc2cc(OS(=O)(=O)c3ccc(F)cc3)ccc21,inactive
18,Cc1cnc(C(=O)Oc2ccc3oc4ccccc4c3c2)cn1,"inconclusive: 79.4 µM [inhibitor, partial curve, poor fit]"
19,O=[N+]([O-])c1cccnc1Sc1ccccc1Cl,"inconclusive: 112 µM [inhibitor, single point]"
20,COc1ccc(NC(=O)CS(=O)(=O)c2cn(CC(=O)N3CCOCC3)c3ccccc23)cc1OC,"inconclusive: 50.1 µM [inhibitor, partial curve, poor fit]"
21,CCN(CC)CC(O)CNc1ccnc2c(Cl)ccc(Cl)c12 (stereo unspecified),inactive
22,CC(=NCCCn1ccnc1)C1=C(O)c2ccccc2C1=O,inactive

row,SMILES,Potency
1,CCN(CC)CCN(C(=O)c1ccc(C(=O)OC)cc1)c1nc2ccc(Cl)cc2s1,"inconclusive: 50.1 µM [inhibitor, partial curve, poor fit]"
2,CCCCCCCCOC(=O)C1C(c2ccccc2)C(C(=O)O)C1c1ccccc1 (stereo unspecified),"inconclusive: 56.2 µM [inhibitor, partial curve, poor fit]"
3,Cc1cccc(OCCc2noc(C3CCCN(Cc4ccccn4)C3)n2)c1 (stereo unspecified),inactive
4,CSc1ccc(CN2CCC(CO)(CCOc3ccccc3)CC2)cc1,inactive
5,N#Cc1cccc(-c2nccc(NCc3cccnc3)n2)c1,"inconclusive: 4.47 µM [inhibitor, full curve, poor fit]"
6,CC(NC(=O)CNC(=O)c1ccc(N2CCCC2=O)cc1)c1ccc(Cl)cc1Cl (stereo unspecified),"inconclusive: 50.1 µM [inhibitor, single point]"
7,O=C(CCl)c1ccc2[nH]c(=O)oc2c1,"inconclusive: 100 µM [inhibitor, partial curve, poor fit]"
8,COc1ccc(NC(=O)c2ccc(NC3CC(=O)N(c4ccc(C)cc4C)C3=O)cc2)cc1 (stereo unspecified),"inconclusive: 20 µM [inhibitor, full curve]"
9,CCc1cc(=O)oc2cc(C)c(CN3CCCCC3)c(O)c12,"inconclusive: 35.5 µM [inhibitor, partial curve, poor fit]"
10,Cc1ccccc1S(=O)(=O)N(C)C[C@@H]1OCc2ccccc2-c2c(n(C)c3ccccc23)C(=O)N([C@H](C)CO)C[C@@H]1C,inactive
11,CCCN1CCN(C(=O)c2ccc(Sc3ccc(C)cc3)c(NC(C)=O)c2)CC1,inactive
12,COc1cccc(CN(C)C(=O)c2cc(COc3ccc(-n4cncn4)cc3)on2)c1,"inconclusive: 63.1 µM [inhibitor, partial curve, poor fit]"
13,Cc1ccc(C(=O)NN2CC(C(=O)OCC(=O)c3ccccc3)CC2=O)cc1 (stereo unspecified),inactive
14,O=C1CSC(c2ccc(Cl)cc2)N1 (stereo unspecified),"inconclusive: 50.1 µM [inhibitor, partial curve, poor fit]"
15,NS(=O)(=O)c1cccc2c1c([N+](=O)[O-])cc1nc(O)c(O)nc12,"inconclusive: 31.6 µM [inhibitor, single point] and inconclusive: 20 µM [inhibitor, partial curve]"
16,CSC1=N/C(=C\C=C\c2cccs2)C(=O)S1,"inconclusive: 44.7 µM [inhibitor, partial curve, poor fit]"
17,COc1ccc(N2CCN(C(=O)c3cccc(S(=O)(=O)N4CCCc5ccccc54)c3)CC2)cc1,inactive
18,CCn1cc(CN2CCCC(C(=O)c3ccc(-c4ccccc4)c(F)c3)C2)cn1 (stereo unspecified),"inconclusive: 100 µM [inhibitor, single point]"
19,Cc1cc(C=C2C(=O)c3ccccc3C2=O)c(C)n1-c1cccc(C(=O)O)c1,"inconclusive: 56.2 µM [inhibitor, partial curve, poor fit]"
20,O=C(OCc1c(F)cccc1Cl)c1cnc2ccccc2n1,inactive
21,CC(C)c1ccc(NC(=O)C(c2ccc3c(c2)OCO3)N2CCN(C(=O)c3ccco3)CC2)cc1 (stereo unspecified),"inconclusive: 11.2 µM [inhibitor, partial curve, poor fit]"
22,Cn1c(=O)[nH]c(=O)c2c1nc(N1CCN(CC(N)=O)CC1)n2Cc1ccc(Cl)cc1Cl,inactive
